Source: publication PMC4513851
Results are given in words; binding and its absence hold for the method and conditions named. Binding can be weak; no strength is given.

Target: LeishIF4G3, yeast two-hybrid fusion (not stated (Leishmania; printed accession is of L. major)) (UniProt Q4QEK5)
Assay: two-hybrid; GAL4-based, yeast YRG-2; SD-2 and SD-3 plates with 1.75 mM 3-amino-1,2,4-triazole; growth without histidine after 4–7 days

## LeishIF4E4, yeast two-hybrid fusion (from UniProt Q4Q7R3)
  binding: binds
